# Measured values from PubChem BioAssay AID1347423 (Functional Genomics Laboratory (NCATS/FGL), 2020).
# The whole screen tested about 52,000 sequences, of which about 210 (0.4%) were called active.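 Rule for the calls: active = gene whose silencing raises cell survival under the drug, median off-target-corrected z-score across its silencing RNAs 2 or more; inactive = the rest.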 The list shows a part of the results.
# Test: Resistance to Poly (ADP-Ribose) Polymerase inhibitor: Gene Identification via Genome-wide siRNA Screen
# Conditions: mouse BRCA2 R2336H ES cells, olaparib, CellTiter-Glo viability; hits give high values
# Method in brief: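 Mouse BRCA2 R2336H ES cells were reverse-transfected with siRNA (20 nM final), treated at 48 h with 500 nM olaparib, and read by CellTiter-Glo after 72 h. Scores: MAD-based z per siRNA, median per gene, seed off-target correction.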
row,Sequence,z-score
1,GGUCCAAAAAUGCAAAGAATT against A430081C19Rik,inactive: -0.162
2,GGCACUUCAAAAAAAGAAUTT against Iigp2,inactive: -0.519
3,GGAACCAGUAUCCUGACAUTT against Prop1,inactive: 0.288
4,GGAGAAGCUCAUCUCUCUGTT against Rfx2,inactive: -1.61
5,CGAAAACUUCAUAGCUACATT against Hmg20a,inactive: -0.199
6,GGCAACAGUACCAAAGACATT against Rps24,inactive: -3.35
7,GCCCUGGCAAAAGAUACCATT against Cidec,inactive: -0.0327
8,GGAUUUAGGCUACUUUUUCTT against Art4,inactive: 0.0571
9,GGAUGCUACGUUCUGCUAGTT against Bcat2,inactive: -0.76
10,GGCAGUAUUGACUCCUACCTT against 6430548M08Rik,inactive: 2
11,CCAUCUCGAUUUGUAUAAUTT against 2010002A20Rik,inactive: -0.557
12,CCUAUAUUACACGUCAUUUTT against Trim30,inactive: 2.04
13,GCUGCUUUGGCAACUUUCATT against Lix1,inactive: -1.2
14,GGAAUUAAAUGAACCCAGATT against 3110043J09Rik,inactive: 0.395
15,CCUAUUACUCAAACACAGATT against Arl8,inactive: 1.01
16,CGUUAGCUGUUAUGAUCUATT against Cept1,inactive: -1.84
17,GGCCUCAGAUAUAGGUCUCTT against Cln6,inactive: 0.597
18,GGUCUACAAUGUGCGCACUTT against 6720458F09Rik,inactive: -0.703
19,GCGUGUGCUAAUGAAAAUGTT against Fxr1h,inactive: -0.15
20,GGAAGAAUCUGUUACUUUUTT against Rad1,inactive: -2.46
21,GGAGCUGACAGAGAGAUUCTT against 5530600A18Rik,inactive: -3.1
22,GGUCUCCCUUCAGUAUGAGTT against Ela3b,active: 2.47
23,CGAAUUCACGAACUUGAGATT against D11Ertd461e,inactive: -0.0198
24,GGAUUUCCUAGUAUCUAUGTT against Spnb1,inactive: 0.448
25,AAUCUUGAGAGAUUUCUCCTT against Scd2,inactive: 0.369
26,GGGCAUUGACCACAAAAAGTT against 1200002M06Rik,inactive: 0.349

# Retrieved one by one from the list above, 4 records:
row,Sequence,z-score
14,GGAAUUAAAUGAACCCAGATT against 3110043J09Rik,inactive: 0.395
26,GGGCAUUGACCACAAAAAGTT against 1200002M06Rik,inactive: 0.349
5,CGAAAACUUCAUAGCUACATT against Hmg20a,inactive: -0.199
23,CGAAUUCACGAACUUGAGATT against D11Ertd461e,inactive: -0.0198

# Further records follow:

row,Sequence,z-score
1,GCGGGAAACUACGAUAGUCTT against Gk-rs1,inactive: -0.08
2,GGUCAUAUGAGCGCACAGGTT against Ccnl2,inactive: 0.304
3,CCAUUCUCCUCAGAUACUCTT against Slc25a17,inactive: 0.204
4,GCAAACUGUGGACAUUUAATT against Gabra5,inactive: -0.0937
5,GGUAUUUGAAGGGACAUCUTT against Atp6v1b2,inactive: 0.311
6,GGACACAAAGAAGAAGAGGTT against A530046H20Rik,inactive: 1.55
7,GGAAGUAGUCUUCUACAGUTT against Cyp4f15,inactive: -0.288
8,GCUCCCUUCCCAAUAAAGCTT against Gadd45gip1,inactive: 1.39
9,GGAAAAGGUUACCUUGCCCTT against 9030425E11Rik,inactive: 0.555
10,GCAAAUGGAUCACAGGCCUTT against BC018399,inactive: -2.17
11,GCACUUACUCAAAUGGAACTT against Cyp2j6,inactive: 0.167
12,GGAACAUAUACUGGGCAACTT against Tcl1b1,inactive: 0.794
13,GCUUCCCUGGACCCAAUGUTT against Artn,inactive: 2.83
14,GACAAAACAAUUUCCUAUGTT against Olfr805,inactive: 0.0617
15,GGUUUUCAUUGCCCAGUCCTT against Drbp1,inactive: 1.72
16,GGCUGCUUUCUGAUGGUCATT against A530081L18Rik,inactive: 0.122
17,CCAGAUGCUAUGCUAGGGATT against BC049354,inactive: -1.16
18,CCACGCCAUCUUACUGACUTT against Adamts16,inactive: 1.66
19,GGACUUGUCCGCUCAUUGGTT against Usp54,inactive: 0.263
20,GGCGACUCUGUCACAAUUUTT against C1rl,inactive: -0.816
21,GCAUUAUGCAAAUGAGGAUTT against Phtf2,inactive: 0.0171
22,CCUGUCAUCUAUGCUAUGATT against Npnt,inactive: -1.17
23,CGCAGACAACAAAGUAGAATT against Sars1,inactive: 0.596
24,GGCAGCAUUGAGUGUGUGATT against Asb13,inactive: -2.9
25,CCACUAAUUACAGUAACAUTT against Akr1c20,inactive: 0.237
26,GCAUUUUGUGGAAAAGGCUTT against Olfr582,inactive: 0.742

row,Sequence,z-score
1,CGUGGAGAACUGGUAUCAGTT against Psg17,inactive: -1.65
2,GGAGAAGCCUGGAAGGAAATT against 1190017O12Rik,inactive: 0.696
3,CCAGGACCUAGAGUACCUUTT against 1700012B18Rik,inactive: -1.19
4,CGCAUUGCCAAACAACUCUTT against Gad2,inactive: 0.13
5,GCAAUGGUUGGUUCAAUAATT against 5730427C23Rik,inactive: -1.47
6,GGAGAACGAUUUCGAUCGCTT against Cope,inactive: -0.00108
7,GCUUUCACUAAUCAGUACATT against 2900045N06Rik,inactive: -1.32
8,GGUUUCAAACUCUUGUAAUTT against Pgrmc1,inactive: 0.968
9,GGAUUGAUUUUUGGAGGGCTT against Fxyd4,inactive: 0.579
10,GGAACAUCUUUCUUCUCCATT against Abhd4,inactive: -1.07
11,GGGCAUGACAUUCGAGACATT against Accn2,inactive: -0.621
12,GCUCCCACCCUUAAAUAAUTT against Ltb4dh,inactive: -0.376
13,CCGGACAAGUCGUUUUUUATT against Cdca1,inactive: -2.51
14,GCUACAGGUUUUAUCUCUUTT against Mylc2pl,inactive: -0.935
15,GCUGUCUGUGGUUAUUGGGTT against 5730411O18Rik,inactive: -0.507
16,GGAUUGUCAGCCAAGAAACTT against Ube1l,inactive: 0.652
17,CCCUAAAACUUCUAUCGAGTT against Itgb4bp,inactive: -1.93
18,GGUUUGAGGCGAGCUAACUTT against Rph3a,inactive: -2.3
19,GCAAAUGUAUUAUGUCCUUTT against MGC54654,inactive: 1.72
20,GGCACAGGUUAGAUGAGAGTT against A830091I15Rik,inactive: -0.793
21,GGAUUAUCCUGGCUUGUUGTT against Rdh12,inactive: -0.246
22,GUGAUAAAUGCUGAUAGUGTT against Olfr1280,inactive: 0.823
23,GCAUAUGAUUAUUCUGGGATT against Cox7a2l,inactive: 0.896
24,GGUUUAUCUCAAGUCUCAATT against 5730436H21Rik,inactive: -1.01
25,CCACUUUCACCACAAAGUCTT against Klre1,inactive: -0.131
26,GGAAGCUGGCUGGAAAGAUTT against Saa2,inactive: -1.18

# Reformatted with tabs: entries from further up
row	Sequence	z-score
6	GGAGAACGAUUUCGAUCGCTT against Cope	inactive: -0.00108
7	GCUUUCACUAAUCAGUACATT against 2900045N06Rik	inactive: -1.32
8	GGUUUCAAACUCUUGUAAUTT against Pgrmc1	inactive: 0.968

# Next part

row,Sequence,z-score
1,GCAUGUUAGGUGCUGUGCATT against A530082C11Rik,inactive: -3.17
2,GGGAAAAAGCUAGAAAAAGTT against Gp1ba,inactive: 1.33
3,AUCUAUUCGAAUCAGGAAGTT against Epsti1,inactive: -1.1
4,GCACUUGGGUAAAAAACUCTT against Bcorl1,inactive: 0.555
5,GGAGUCCUGAAGAAUAAAGTT against Tff3,inactive: -0.456
6,GGGCCCGAUAGAUAUAAACTT against B4galt5,inactive: 0.851
7,GGAAAAGAAAGUCUGCCAATT against Egfr,inactive: 0.645
8,UCAACUGCUUAGAGCAUGUTT against ORF61,inactive: 1.53
9,GCUCUAUGAACCAGCUUCATT against Plekha6,inactive: -0.647
10,GGUCUCCAUAAGUGUCAGCTT against Cntfr,inactive: -0.605
11,GGGUAAAAGUUGAGUAAAATT against Ppp1r14c,inactive: -0.64
12,GCUGCCUAUGGCUUCUUCCTT against 1810008O21Rik,inactive: 1.01
13,GGUCAUUCUUAAUUGUUCATT against Kpna6,inactive: -1.32
14,GGCAACAUGGUGAUCAUCGTT against Olfr323,inactive: -2.57
15,GCCGUGCUAUGUAUUAUUCTT against Ptk9,inactive: 0.38
16,GGACUCUCCUAUGUUAUAGTT against Nphs2,inactive: 0.646
17,GGAAACUGCUGAAAGGUUATT against D530025C17Rik,inactive: 0.764
18,GGUCUUUAUUUACCUCUUUTT against Cyp2c39,inactive: -1.29
19,GCAACGAAGUGAAUUUGUUTT against Epha5,inactive: -0.292
20,GGAGCUGUUCUCUGAAAUGTT against Rabl4,inactive: -0.0778
21,GGAAGAAUUGAAUUGUAUGTT against Pom121,inactive: 0.00316
22,CCUUAGGACAAGUAUUCUGTT against Cbx6,inactive: 1.14
23,CCAGUAAACCUACAUGUUCTT against Htr3b,inactive: 0.197
24,GGUGUCUGUCAUGACCAUGTT against Tie1,inactive: 2.02
25,GGCAAUGAUGAGACCUAGUTT against Mybbp1a,inactive: -0.393
26,GCAACCUGAUAGUGUGGUCTT against Crisp1,inactive: 1.1
